Assay [1] deals with T1, GST-sLZIP (small leucine zipper protein) (human) (UniProt O43889).
T1 sequence: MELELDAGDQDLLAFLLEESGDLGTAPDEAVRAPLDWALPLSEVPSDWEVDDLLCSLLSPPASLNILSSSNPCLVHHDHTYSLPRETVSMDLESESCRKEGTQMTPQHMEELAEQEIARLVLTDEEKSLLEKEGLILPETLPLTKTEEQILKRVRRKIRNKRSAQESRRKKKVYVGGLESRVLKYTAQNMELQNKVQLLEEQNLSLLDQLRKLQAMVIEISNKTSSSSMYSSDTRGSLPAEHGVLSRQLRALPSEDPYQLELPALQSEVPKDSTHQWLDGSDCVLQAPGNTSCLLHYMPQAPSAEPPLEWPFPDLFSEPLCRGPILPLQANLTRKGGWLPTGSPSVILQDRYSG
Briefly: pull-down; MCF7 cells transfected with GST-mock and GST-sLZIP (2 μg), treated with 100 nM E2 for indicated time periods in charcoal stripped media; total cell lysates incubated overnight with glutathione Sepharose 4B beads at 4°C; Western blot with anti-ERα and anti-GST antibodies.

Chains of the proteins cited; added tags and fusions are not shown.
UniProt P03372: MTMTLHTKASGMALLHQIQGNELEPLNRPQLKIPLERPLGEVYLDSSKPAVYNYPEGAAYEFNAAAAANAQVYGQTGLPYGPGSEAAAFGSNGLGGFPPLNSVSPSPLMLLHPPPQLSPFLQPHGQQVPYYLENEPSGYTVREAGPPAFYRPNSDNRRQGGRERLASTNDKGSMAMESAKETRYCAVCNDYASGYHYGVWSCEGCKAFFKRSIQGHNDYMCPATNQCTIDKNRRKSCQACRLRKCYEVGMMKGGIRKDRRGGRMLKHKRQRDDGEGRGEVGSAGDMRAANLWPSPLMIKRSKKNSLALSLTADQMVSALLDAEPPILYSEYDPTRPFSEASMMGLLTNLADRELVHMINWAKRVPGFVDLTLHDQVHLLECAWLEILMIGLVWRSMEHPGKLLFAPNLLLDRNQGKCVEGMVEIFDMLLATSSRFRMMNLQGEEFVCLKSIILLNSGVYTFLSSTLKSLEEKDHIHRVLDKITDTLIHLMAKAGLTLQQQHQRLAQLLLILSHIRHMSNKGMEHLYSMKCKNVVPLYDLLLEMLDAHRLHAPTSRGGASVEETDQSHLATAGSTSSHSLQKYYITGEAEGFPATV

For assay [2], the target named is T1, GST-sLZIP (small leucine zipper protein) (human). The experiment in a line: co-IP; MCF7 cells transfected with GST-sLZIP (2 μg), stimulated with 100 nM E2 for indicated time periods in charcoal stripped media; total cell lysates immunoprecipitated with IgG and anti-GST antibody; protein A/G PLUS agarose overnight at 4°C; Western blot. On the technique in general: In western blotting, separated proteins are transferred to a membrane and probed.

For assay [3], the target named is estrogen receptor α (human (endogenous in MCF7)) (UniProt P03372). The experiment in a line: co-IP; MCF7 cells transfected with GFP-sLZIP (2 μg), stimulated with 100 nM E2 for indicated time periods in charcoal stripped media; total cell lysates immunoprecipitated with IgG and anti-ERα antibody; protein A/G PLUS agarose overnight at 4°C; Western blot.

These are yes or no findings as the source states them, for the method shown. Binding seen in cells or lysates may run through a third protein. Some results given as binding are weak or reduced against the parent protein; the word gives no strength. Sequences can lack the tags named with a protein.

Regarding “estrogen receptor α (from UniProt P03372 1-595)”, the binding result in assay [1] and in assay [2] was “binds” throughout.

B1: GFP-sLZIP (small leucine zipper protein) (protein, UniProt O43889-3 1-354)
chain: MELELDAGDQDLLAFLLEESGDLGTAPDEAVRAPLDWALPLSEVPSDWEVDDLLCSLLSPPASLNILSSSNPCLVHHDHTYSLPRETVSMDLESESCRKEGTQMTPQHMEELAEQEIARLVLTDEEKSLLEKEGLILPETLPLTKTEEQILKRVRRKIRNKRSAQESRRKKKVYVGGLESRVLKYTAQNMELQNKVQLLEEQNLSLLDQLRKLQAMVIEISNKTSSSSMYSSDTRGSLPAEHGVLSRQLRALPSEDPYQLELPALQSEVPKDSTHQWLDGSDCVLQAPGNTSCLLHYMPQAPSAEPPLEWPFPDLFSEPLCRGPILPLQANLTRKGGWLPTGSPSVILQDRYSG
For the molecule B1, in assay [3], the binding result was “binds”.

For the origin of these results see article PMC5491147.
